According to paper PMC9646525, “Cryo-EM structure of the SEA complex” (Nature, 2022):
Like-named read-outs stand apart in the source and are kept apart here. Results are given in words; binding and its absence hold for the method and conditions named. In cells and extracts the contact can be indirect. Some results given as binding are weak or reduced against the parent protein; the word gives no strength.

By UniProt entry, the sequences of proteins in these tests, tags left out. Where a name states a change or a piece, a line headed by the entry shows the natural chain unless it says otherwise.
UniProt P47170, whole entry, looked up, stated change not applied: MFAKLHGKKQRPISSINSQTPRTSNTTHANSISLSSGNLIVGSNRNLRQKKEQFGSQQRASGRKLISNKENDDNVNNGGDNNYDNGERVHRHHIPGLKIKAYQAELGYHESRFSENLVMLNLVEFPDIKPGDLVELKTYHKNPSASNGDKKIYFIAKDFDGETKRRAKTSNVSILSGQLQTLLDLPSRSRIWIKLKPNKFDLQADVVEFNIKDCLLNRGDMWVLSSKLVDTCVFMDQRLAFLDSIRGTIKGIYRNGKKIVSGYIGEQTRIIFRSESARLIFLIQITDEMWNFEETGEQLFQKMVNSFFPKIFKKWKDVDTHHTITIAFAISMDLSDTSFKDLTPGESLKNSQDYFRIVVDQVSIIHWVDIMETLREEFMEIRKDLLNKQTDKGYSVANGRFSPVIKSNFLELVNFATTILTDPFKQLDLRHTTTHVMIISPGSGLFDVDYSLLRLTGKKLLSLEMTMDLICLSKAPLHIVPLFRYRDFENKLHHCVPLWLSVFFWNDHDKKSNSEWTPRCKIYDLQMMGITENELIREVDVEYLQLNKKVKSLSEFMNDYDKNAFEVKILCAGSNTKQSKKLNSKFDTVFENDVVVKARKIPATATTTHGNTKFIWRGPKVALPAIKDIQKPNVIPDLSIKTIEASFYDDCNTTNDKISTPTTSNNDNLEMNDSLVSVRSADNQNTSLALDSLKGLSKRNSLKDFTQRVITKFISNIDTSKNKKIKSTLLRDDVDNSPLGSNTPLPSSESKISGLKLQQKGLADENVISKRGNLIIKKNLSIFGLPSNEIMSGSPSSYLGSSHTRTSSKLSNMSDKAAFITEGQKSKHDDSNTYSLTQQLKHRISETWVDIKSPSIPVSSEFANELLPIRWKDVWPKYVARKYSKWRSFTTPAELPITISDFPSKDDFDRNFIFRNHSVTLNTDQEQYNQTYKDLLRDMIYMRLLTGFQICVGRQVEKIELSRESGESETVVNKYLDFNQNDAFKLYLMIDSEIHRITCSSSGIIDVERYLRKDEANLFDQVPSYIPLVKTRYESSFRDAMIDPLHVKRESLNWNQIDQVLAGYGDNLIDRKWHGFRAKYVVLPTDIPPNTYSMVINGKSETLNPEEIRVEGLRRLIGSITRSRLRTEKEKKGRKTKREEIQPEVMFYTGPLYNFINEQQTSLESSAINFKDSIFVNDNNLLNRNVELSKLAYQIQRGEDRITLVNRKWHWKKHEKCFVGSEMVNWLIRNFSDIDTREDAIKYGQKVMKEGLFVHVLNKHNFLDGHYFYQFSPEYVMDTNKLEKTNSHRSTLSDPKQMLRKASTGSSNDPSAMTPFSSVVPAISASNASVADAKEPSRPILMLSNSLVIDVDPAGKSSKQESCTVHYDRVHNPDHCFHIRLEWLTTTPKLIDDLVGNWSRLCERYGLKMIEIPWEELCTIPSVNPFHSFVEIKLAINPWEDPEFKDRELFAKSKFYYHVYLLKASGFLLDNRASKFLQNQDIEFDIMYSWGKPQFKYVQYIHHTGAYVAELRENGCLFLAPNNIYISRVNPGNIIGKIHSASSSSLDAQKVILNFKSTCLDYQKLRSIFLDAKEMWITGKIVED

Columns and labels:
[1] = target: T1, Sea4-TAP (S. cerevisiae (endogenous in yeast cells)) (UniProt P38164); assay: co-IP; Sea4-TAP captured from cleared yeast lysate on IgG-coupled Dynabeads, washed, eluted with TEV protease, Coomassie-stained SDS-PAGE; 4 °C, 20 mM HEPES-NaOH pH 7.4, 300 mM NaCl, 5 mM CHAPS, 10% glycerol; wild-type, ΔNpr3, Npr2^R84A and Sea1^R943A strains
T1 sequence: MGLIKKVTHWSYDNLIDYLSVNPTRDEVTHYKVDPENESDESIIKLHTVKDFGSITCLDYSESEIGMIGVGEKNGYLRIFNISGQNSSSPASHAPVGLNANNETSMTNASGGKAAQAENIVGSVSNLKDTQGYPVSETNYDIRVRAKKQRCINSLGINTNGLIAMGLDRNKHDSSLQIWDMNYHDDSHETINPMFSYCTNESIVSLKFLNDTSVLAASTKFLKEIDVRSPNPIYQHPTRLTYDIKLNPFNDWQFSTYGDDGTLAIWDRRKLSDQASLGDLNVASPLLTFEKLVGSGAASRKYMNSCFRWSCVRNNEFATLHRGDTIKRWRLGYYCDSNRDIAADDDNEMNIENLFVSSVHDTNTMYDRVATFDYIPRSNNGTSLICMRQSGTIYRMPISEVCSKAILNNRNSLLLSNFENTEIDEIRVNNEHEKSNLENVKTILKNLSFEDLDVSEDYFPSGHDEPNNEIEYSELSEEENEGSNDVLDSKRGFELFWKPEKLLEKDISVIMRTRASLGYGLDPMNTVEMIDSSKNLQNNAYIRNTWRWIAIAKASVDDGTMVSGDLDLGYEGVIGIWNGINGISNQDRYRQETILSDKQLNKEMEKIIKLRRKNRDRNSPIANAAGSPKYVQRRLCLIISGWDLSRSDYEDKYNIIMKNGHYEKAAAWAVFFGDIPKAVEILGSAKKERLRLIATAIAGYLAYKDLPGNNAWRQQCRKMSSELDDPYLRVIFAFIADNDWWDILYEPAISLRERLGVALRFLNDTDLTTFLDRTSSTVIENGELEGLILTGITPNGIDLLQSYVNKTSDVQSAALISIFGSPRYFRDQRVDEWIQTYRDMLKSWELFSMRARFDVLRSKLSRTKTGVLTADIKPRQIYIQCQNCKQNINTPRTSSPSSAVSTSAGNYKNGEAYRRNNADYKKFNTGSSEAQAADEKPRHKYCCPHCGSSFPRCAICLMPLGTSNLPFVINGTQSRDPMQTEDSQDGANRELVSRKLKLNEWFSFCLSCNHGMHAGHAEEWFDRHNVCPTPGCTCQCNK

[2] = target: T1, Sea4-TAP (S. cerevisiae (endogenous in yeast cells)); assay: as above; remark: listed apart in the source

Sea1^R943A (from UniProt P47170 1-1584)
binding [1]: no binding

B1: Sec13 (natural protein, UniProt Q04491 1-297, looked up)
chain: MVVIANAHNELIHDAVLDYYGKRLATCSSDKTIKIFEVEGETHKLIDTLTGHEGPVWRVDWAHPKFGTILASCSYDGKVLIWKEENGRWSQIAVHAVHSASVNSVQWAPHEYGPLLLVASSDGKVSVVEFKENGTTSPIIIDAHAIGVNSASWAPATIEEDGEHNGTKESRKFVTGGADNLVKIWKYNSDAQTYVLESTLEGHSDWVRDVAWSPTVLLRSYLASVSQDRTCIIWTQDNEQGPWKKTLLKEEKFPDVLWRASWSLSGNVLALSGGDNKVTLWKENLEGKWEPAGEVHQ
notes: Sec13, S. cerevisiae, endogenous subunit of the SEAC (SEACAT, core); Native protein of the purified complex; two copies in the SEAC; source: endogenous, yeast cells expressing Sea4-TAP; in lysate and co-purified with Sea4-TAP (IgG Dynabeads, TEV elution)
binding [2]: binds
